Source: US11453841B2, “Functionalized branched alcohols as non-ionic sugar surfactants” (ExxonMobil Technology and Engineering Company, priority 2019, dated 2022)

System: microorganisms
Assay: OECD 301F manometric respirometry biodegradability test
Settings: 57 to 100 mg/L

O=C([O-])c1ccccc1.[Na+] [Sodium Benzoate]
Percent Biodegradation Mean (Day 1): 22.51%
Percent Biodegradation Rep 1 (Day 1): 22.43%
Percent Biodegradation Rep 2 (Day 1): 21.14%
Percent Biodegradation Rep 3 (Day 1): 23.95%
Percent Biodegradation Mean (Day 2): 57.98%
Percent Biodegradation Rep 1 (Day 2): 58.41%
Percent Biodegradation Rep 2 (Day 2): 57.65%
Percent Biodegradation Rep 3 (Day 2): 57.88%
Percent Biodegradation Mean (Day 3): 60.95%
Percent Biodegradation Rep 1 (Day 3): 61.48%
Percent Biodegradation Rep 2 (Day 3): 60.26%
Percent Biodegradation Rep 3 (Day 3): 61.12%
Percent Biodegradation Mean (Day 4): 70.56%
Percent Biodegradation Rep 1 (Day 4): 71.33%
Percent Biodegradation Rep 2 (Day 4): 69.35%
Percent Biodegradation Rep 3 (Day 4): 71.00%
Percent Biodegradation Mean (Day 5): 76.88%
Percent Biodegradation Rep 1 (Day 5): 79.98%
Percent Biodegradation Rep 2 (Day 5): 75.69%
Percent Biodegradation Rep 3 (Day 5): 74.96%
Percent Biodegradation Mean (Day 6): 80.89%
Percent Biodegradation Rep 1 (Day 6): 82.92%
Percent Biodegradation Rep 2 (Day 6): 81.01%
Percent Biodegradation Rep 3 (Day 6): 78.75%
Percent Biodegradation Mean (Day 7): 84.60%
Percent Biodegradation Rep 1 (Day 7): 85.65%
Percent Biodegradation Rep 2 (Day 7): 84.56%
Percent Biodegradation Rep 3 (Day 7): 83.60%
Percent Biodegradation Mean (Day 8): 87.11%
Percent Biodegradation Rep 1 (Day 8): 88.21%
Percent Biodegradation Rep 2 (Day 8): 86.83%
Percent Biodegradation Rep 3 (Day 8): 86.30%
Percent Biodegradation Mean (Day 9): 89.08%
Percent Biodegradation Rep 1 (Day 9): 90.06%
Percent Biodegradation Rep 2 (Day 9): 88.89%
Percent Biodegradation Rep 3 (Day 9): 88.29%
Percent Biodegradation Mean (Day 10): 90.28%
Percent Biodegradation Rep 1 (Day 10): 90.68%
Percent Biodegradation Rep 2 (Day 10): 90.11%
Percent Biodegradation Rep 3 (Day 10): 90.06%
Percent Biodegradation Mean (Day 11): 91.03%
Percent Biodegradation Rep 1 (Day 11): 91.37%
Percent Biodegradation Rep 2 (Day 11): 90.72%
Percent Biodegradation Rep 3 (Day 11): 90.99%
Percent Biodegradation Mean (Day 12): 91.58%
Percent Biodegradation Rep 1 (Day 12): 91.92%
Percent Biodegradation Rep 2 (Day 12): 91.23%
Percent Biodegradation Rep 3 (Day 12): 91.59%
Percent Biodegradation Mean (Day 13): 92.04%
Percent Biodegradation Rep 1 (Day 13): 92.38%
Percent Biodegradation Rep 2 (Day 13): 91.66%
Percent Biodegradation Rep 3 (Day 13): 92.07%
Percent Biodegradation Mean (Day 14): 92.51%
Percent Biodegradation Rep 1 (Day 14): 92.85%
Percent Biodegradation Rep 2 (Day 14): 92.11%
Percent Biodegradation Rep 3 (Day 14): 92.56%
Percent Biodegradation Mean (Day 15): 92.92%
Percent Biodegradation Rep 1 (Day 15): 93.24%
Percent Biodegradation Rep 2 (Day 15): 92.48%
Percent Biodegradation Rep 3 (Day 15): 93.03%
Percent Biodegradation Mean (Day 16): 93.16%
Percent Biodegradation Rep 1 (Day 16): 93.52%
Percent Biodegradation Rep 2 (Day 16): 92.69%
Percent Biodegradation Rep 3 (Day 16): 93.28%
Percent Biodegradation Mean (Day 17): 93.41%
Percent Biodegradation Rep 1 (Day 17): 93.70%
Percent Biodegradation Rep 2 (Day 17): 92.93%
Percent Biodegradation Rep 3 (Day 17): 93.60%
Percent Biodegradation Mean (Day 18): 93.81%
Percent Biodegradation Rep 1 (Day 18): 94.11%
Percent Biodegradation Rep 2 (Day 18): 93.32%
Percent Biodegradation Rep 3 (Day 18): 94.01%
Percent Biodegradation Mean (Day 19): 94.12%
Percent Biodegradation Rep 1 (Day 19): 94.45%
Percent Biodegradation Rep 2 (Day 19): 93.59%
Percent Biodegradation Rep 3 (Day 19): 94.33%
Percent Biodegradation Mean (Day 20): 94.33%
Percent Biodegradation Rep 1 (Day 20): 94.67%
Percent Biodegradation Rep 2 (Day 20): 93.79%
Percent Biodegradation Rep 3 (Day 20): 94.53%
Percent Biodegradation Mean (Day 21): 94.57%
Percent Biodegradation Rep 1 (Day 21): 94.86%
Percent Biodegradation Rep 2 (Day 21): 93.98%
Percent Biodegradation Rep 3 (Day 21): 94.86%
Percent Biodegradation Mean (Day 22): 94.72%
Percent Biodegradation Rep 1 (Day 22): 95.13%
Percent Biodegradation Rep 2 (Day 22): 94.10%
Percent Biodegradation Rep 3 (Day 22): 94.94%
Percent Biodegradation Mean (Day 23): 94.91%
Percent Biodegradation Rep 1 (Day 23): 95.28%
Percent Biodegradation Rep 2 (Day 23): 94.30%
Percent Biodegradation Rep 3 (Day 23): 95.16%
Percent Biodegradation Mean (Day 24): 94.98%
Percent Biodegradation Rep 1 (Day 24): 95.44%
Percent Biodegradation Rep 2 (Day 24): 94.30%
Percent Biodegradation Rep 3 (Day 24): 95.21%
Percent Biodegradation Mean (Day 25): 95.09%
Percent Biodegradation Rep 1 (Day 25): 95.57%
Percent Biodegradation Rep 2 (Day 25): 94.36%
Percent Biodegradation Rep 3 (Day 25): 95.33%
Percent Biodegradation Mean (Day 26): 95.25%
Percent Biodegradation Rep 1 (Day 26): 95.76%
Percent Biodegradation Rep 2 (Day 26): 94.50%
Percent Biodegradation Rep 3 (Day 26): 95.50%
Percent Biodegradation Mean (Day 27): 95.35%
Percent Biodegradation Rep 1 (Day 27): 95.89%
Percent Biodegradation Rep 2 (Day 27): 94.58%
Percent Biodegradation Rep 3 (Day 27): 95.58%
Percent Biodegradation Mean (Day 28): 95.36%
Percent Biodegradation Rep 1 (Day 28): 95.91%
Percent Biodegradation Rep 2 (Day 28): 94.59%
Percent Biodegradation Rep 3 (Day 28): 95.57%
